“And” between values parts separate entries of the source, which are not always exact repeats. Identical values can stand only once. Counter-ions that a name gives are not always drawn. ± gives the standard deviation of the averaged measurements. In all, about 1,800 compounds were measured (“GFP- (p16Ink4a-) cell count relative to negative-control wells”: median about 0.99, lowest 2% from about 0.5 on). The list shows a part of the results.
system: mouse p16Ink4a+/- lung fibroblasts (INKBRITE, bleomycin-injured); assay: GFP- (p16Ink4a-) cell count relative to negative-control wells (fold of vehicle); higher = more p16Ink4a- cells surviving; details: 1 µM; 3 days

| SMILES | GFP- |
| --- | --- |
| CC(=O)O[C@H]1C[C@@H]2CC[C@@H]3[C@H](CC[C@@]4(C)[C@H]3C[C@H]([N+]3(C)CCCCC3)[C@@H]4OC(C)=O)[C@@]2(C)C[C@@H]1N1CCCCC1 [Vecuronium] | 1.03 |
| CC(C)c1nc(N(C)S(C)(=O)=O)nc(-c2ccc(F)cc2)c1/C=C/[C@@H](O)C[C@@H](O)CC(=O)O [Rosuvastatin, Rosuvastatin Calcium] | 1.03 |
| COc1cc(/C=C/C(=O)N2CCN(CC(=O)N3CCCC3)CC2)cc(OC)c1OC [Cinepazide maleate] | 1.05 |
| COc1cccc2c1C(=O)c1c(O)c3c(c(O)c1C2=O)C[C@@](O)(C(=O)CO)C[C@@H]3O[C@H]1C[C@H](N)[C@H](O[C@@H]2CCCCO2)[C@H](C)O1 [Pirarubicin] | 0.81 |
| COC(=O)CCSCc1ccc(-c2onc(C)c2NC(=O)OC(C)c2ccccc2Cl)cc1 (stereo not given) | 0.932 |
| CCCCNc1ccc(C(=O)OCCN(C)C)cc1 [Tetracaine] | 1.13 |
| CN[C@@H](C)C(=O)N[C@H](C(=O)N1CCC[C@H]1C(=O)Nc1snnc1-c1ccccc1)C1CCCCC1 | 1.31 |
| COc1cc(NS(=O)(=O)c2ccc(N)cc2)nc(OC)n1 [Sulfadimethoxine] | 0.986 |
| Cc1cc(Nc2cc(N3CCN(C)CC3)nc(/C=C/c3ccccc3)n2)n[nH]1 | 0.65 ± 0.11 |
| O=S(=O)(c1ccccc1)N(CC(F)(F)F)c1ccc(C(O)(C(F)(F)F)C(F)(F)F)cc1 | 0.972 |
| COc1ccnc2[nH]cc(C(=O)C(=O)N3CCN(C(=O)c4ccccc4)C[C@H]3C)c12 | 1.01 |
| Cc1cccc(-c2[nH]ncc2-c2ccc3ncccc3n2)n1 | 1.3 |
| Cn1cc(-c2ccc3nnc(C(F)(F)c4ccc5ncccc5c4)n3n2)cn1 | 0.945 |
| NS(=O)(=O)c1ccc(NC(=O)Nc2ccc(F)cc2)cc1 | 1.06 |
| COc1ccc2ccc(=O)oc2c1CC=C(C)C [Osthol] | 1.09 |
| Cc1cc(F)c(Nc2ncnc3cc(OCc4ccccc4)ccc23)cc1O | 1.1 |
| Cc1cc(C(C)(C)C)cc(C)c1CC1=NCCN1 [Xylometazoline] | 1.04 |
| COc1ccc(S(=O)(=O)N(C(C)=O)c2ccccc2/C=C/c2cc[n+]([O-])cc2)cc1 | 0.564 |
| Cn1cncc1[C@@](N)(c1ccc(Cl)cc1)c1ccc2c(c1)c(-c1cccc(Cl)c1)cc(=O)n2C [Tipifarnib] | 0.666 |
| CNC(=O)[C@H](Cc1ccccc1)NC(=O)[C@H](CC(C)C)[C@H](CSc1cccs1)C(=O)NO [Batimastat] | 1.08 |

| SMILES | GFP- |
| --- | --- |
| COc1cc2ncnc(Nc3ccc(O)c(Br)c3)c2cc1OC | 0.883 ± 0.044 |
| CCCC(=O)Nc1cccc(NC(=O)c2ccccc2Br)c1 | 1.03 |
| C#CCC(Cc1cnc2nc(N)nc(N)c2n1)c1ccc(C(=O)N[C@@H](CCC(=O)O)C(=O)O)cc1 (stereo not given in full) [Pralatrexate] | 0.846 |
| CO/N=C(\C(=O)N[C@@H]1C(=O)N2C(C(=O)OCOC(=O)C(C)(C)C)=C(/C=C\c3scnc3C)CS[C@H]12)c1csc(N)n1 [Cefditoren Pivoxil] | 0.786 |
| CC(=O)OCC(=O)[C@@]12OC(C)(C)O[C@@H]1C[C@H]1[C@@H]3C[C@H](F)C4=CC(=O)C=C[C@]4(C)[C@@]3(F)[C@@H](O)C[C@@]12C [Fluocinonide] | 1.01 |
| CC1=NN(c2ccc(C(=O)O)cc2)C(=O)/C1=C\c1ccc(-c2cc(C)c(C)cc2[N+](=O)[O-])o1 | 1.04 ± 0.047 |
| CC(C)c1cc(-c2nnc(O)n2-c2ccc3c(ccn3C)c2)c(O)cc1O [Ganetespib] | 0.538 |
| OC[C@H]1O[C@@H](n2cnc3c(O)ncnc32)[C@H](O)[C@@H]1O [Inosine] | 0.949 |
| CC1=NC(N)=C(C(=O)OC2CN(C(c3ccccc3)c3ccccc3)C2)C(c2cccc([N+](=O)[O-])c2)/C1=C(/O)OC(C)C (stereo not given) [Azelnidipine] | 1.11 |
| C=CCc1ccc(O)c(-c2cc(CC=C)ccc2O)c1 [Magnolol] | 0.993 |
| Cc1coc2c1C(=O)C(=O)c1c-2ccc2c1CCCC2(C)C [Tanshinone IIA] | 1.21 |
| Oc1nc(-c2ccc(C(F)(F)F)cc2)nc2c1CSCC2 | 0.911 |
| CCN1CCN(Cc2ccc(-c3cc4c(N[C@H](C)c5ccccc5)ncnc4[nH]3)cc2)CC1 | 0.941 |
| COc1cc(Br)c(Nc2nc(-c3c(C)nc4ncccn34)cs2)c(Br)c1 | 0.6 |
| CN1CCN2c3ncccc3Cc3ccccc3C2C1 (stereo not given) [Mirtazapine] | 0.905 |
| NC1(c2ccc(-c3nc4ccn5c(O)nnc5c4cc3-c3ccccc3)cc2)CCC1 | 0.82 |
| CN1CCc2c(c3ccccc3n2Cc2ccc(C(=O)NO)cc2)C1 [Tubastatin A HCl] | 0.854 and 0.999 |
| C[C@@H]1CCN(C(=O)CC#N)C[C@@H]1N(C)c1ncnc2[nH]ccc12 [Tofacitinib] | 0.889 and 0.806 |
| CNC(=O)c1ccc(C)c(-n2c(C)cc(OCc3ccc(F)cc3F)c(Br)c2=O)c1 | 0.988 |
| O=C(NCCS(=O)(=O)c1ccc(C(F)(F)F)cn1)c1ccc(Cl)cc1 | 1.01 |

Source: the supplement of paper PMC11060735
